Values quoted from earlier work as cited in US11542311B2, “Fusion protein, preparation method therefor and application thereof in preparing ophthalmic disease treatment, anti-inflammation and anti-tumor medicament” (JIANGSU RONGTAI BIOTECH CO., LTD., priority 2017, dated 2023).
Some results were stated once for a whole list of compounds, not compound by compound.

Conditions: general statement, no test described; cited from earlier work

HM-3: antiangiogenesis polypeptide HM-3 sequence (SEQ ID NO: 5) (IVRRADRAAVPGGGGRGD)
half-lives in the body: 30 minutes to about 2 hours
